These are yes or no findings as the source states them, for the method shown. Binding seen in cells or lysates may run through a third protein. Here binding means that the protein was enriched with, or labelled near, the bait; the list need not be complete.
Experiments:
^FlagDNAJB8^WT (human) [1] = molecular target: ^FlagDNAJB8^WT (human) (UniProt Q8NHS0); assay: affinity purification with mass spectrometry; ^FlagDNAJB8^WT or mock (eGFP) overexpressed in HEK293T; no crosslinking; RIPA lysis, M2 anti-Flag magnetic beads overnight at 4 °C, washed with RIPA; TMT labelling, MuDPIT LC–MS; nine biological replicates
^FlagDNAJB8^WT (human) [2] = molecular target: ^FlagDNAJB8^WT (human) (UniProt Q8NHS0); assay: affinity purification with mass spectrometry; TMT-AP-MS comparing four conditions: ^FlagDNAJB8 WT vs. H31Q, with or without 1 mM DSP crosslinking of the cells before lysis; RIPA lysis and washes, M2 anti-Flag beads; crosslinks reversed with TCEP; three biological replicates
^FlagDNAJB8^H31Q (human) = ^FlagDNAJB8^H31Q (human) (UniProt Q8NHS0); assay: as above

The chains behind the UniProt entries cited, without tags or fusion partners. Where a name states a change or a piece, a line headed by the entry shows the natural chain unless it says otherwise. Residues count along the entry.
UniProt Q8NHS0: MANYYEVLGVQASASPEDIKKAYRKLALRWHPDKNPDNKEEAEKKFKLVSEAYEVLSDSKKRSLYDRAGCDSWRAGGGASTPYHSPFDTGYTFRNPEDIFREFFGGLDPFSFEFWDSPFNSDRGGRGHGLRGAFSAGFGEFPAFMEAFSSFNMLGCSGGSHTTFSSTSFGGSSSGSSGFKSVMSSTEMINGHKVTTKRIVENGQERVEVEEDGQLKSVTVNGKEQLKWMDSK
UniProt O75190: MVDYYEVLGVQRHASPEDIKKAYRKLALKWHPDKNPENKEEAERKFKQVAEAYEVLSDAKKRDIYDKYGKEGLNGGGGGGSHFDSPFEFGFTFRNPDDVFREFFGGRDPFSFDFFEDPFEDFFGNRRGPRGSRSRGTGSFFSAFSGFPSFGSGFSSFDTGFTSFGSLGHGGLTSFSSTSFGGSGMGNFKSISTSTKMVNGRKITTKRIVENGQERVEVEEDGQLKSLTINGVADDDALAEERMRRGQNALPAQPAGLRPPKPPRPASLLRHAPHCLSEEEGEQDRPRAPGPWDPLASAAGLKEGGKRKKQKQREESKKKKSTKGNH
UniProt P34932: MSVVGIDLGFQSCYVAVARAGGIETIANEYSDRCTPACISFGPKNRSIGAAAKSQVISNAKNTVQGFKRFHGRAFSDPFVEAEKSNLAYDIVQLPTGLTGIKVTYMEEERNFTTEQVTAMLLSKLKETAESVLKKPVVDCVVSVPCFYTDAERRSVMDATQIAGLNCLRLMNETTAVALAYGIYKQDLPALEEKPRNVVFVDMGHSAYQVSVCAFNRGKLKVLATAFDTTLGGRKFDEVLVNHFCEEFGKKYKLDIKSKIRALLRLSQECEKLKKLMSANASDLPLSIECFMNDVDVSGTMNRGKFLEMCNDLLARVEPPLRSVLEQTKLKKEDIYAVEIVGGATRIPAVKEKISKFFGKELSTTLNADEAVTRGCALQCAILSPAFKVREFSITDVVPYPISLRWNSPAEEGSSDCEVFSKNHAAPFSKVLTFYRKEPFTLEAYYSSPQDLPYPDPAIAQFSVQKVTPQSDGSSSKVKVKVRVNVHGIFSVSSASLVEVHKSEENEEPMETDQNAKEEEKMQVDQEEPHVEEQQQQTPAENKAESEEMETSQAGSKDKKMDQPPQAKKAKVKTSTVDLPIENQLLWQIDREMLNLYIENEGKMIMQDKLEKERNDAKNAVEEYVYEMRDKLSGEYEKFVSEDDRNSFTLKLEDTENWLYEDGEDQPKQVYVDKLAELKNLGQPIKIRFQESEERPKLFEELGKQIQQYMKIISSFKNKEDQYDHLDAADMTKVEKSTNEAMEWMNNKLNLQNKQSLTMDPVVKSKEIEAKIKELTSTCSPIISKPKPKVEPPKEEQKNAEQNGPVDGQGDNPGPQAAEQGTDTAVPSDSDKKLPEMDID
UniProt P11021, residues 19-654: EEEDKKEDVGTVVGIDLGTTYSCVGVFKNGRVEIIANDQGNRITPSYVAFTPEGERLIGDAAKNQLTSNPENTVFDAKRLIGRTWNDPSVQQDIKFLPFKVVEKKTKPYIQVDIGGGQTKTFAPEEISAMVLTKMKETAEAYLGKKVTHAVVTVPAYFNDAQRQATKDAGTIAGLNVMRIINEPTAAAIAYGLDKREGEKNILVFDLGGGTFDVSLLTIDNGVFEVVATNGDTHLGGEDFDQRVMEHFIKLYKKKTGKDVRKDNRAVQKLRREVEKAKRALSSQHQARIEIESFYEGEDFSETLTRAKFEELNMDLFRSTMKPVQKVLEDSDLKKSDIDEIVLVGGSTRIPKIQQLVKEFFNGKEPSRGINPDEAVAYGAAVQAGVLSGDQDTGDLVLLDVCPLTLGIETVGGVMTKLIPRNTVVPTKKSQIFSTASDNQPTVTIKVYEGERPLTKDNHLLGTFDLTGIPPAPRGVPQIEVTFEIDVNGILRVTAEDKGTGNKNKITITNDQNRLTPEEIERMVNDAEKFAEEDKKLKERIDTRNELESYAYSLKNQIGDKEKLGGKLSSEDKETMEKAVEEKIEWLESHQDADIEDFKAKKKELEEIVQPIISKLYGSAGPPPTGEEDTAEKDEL
UniProt P17066: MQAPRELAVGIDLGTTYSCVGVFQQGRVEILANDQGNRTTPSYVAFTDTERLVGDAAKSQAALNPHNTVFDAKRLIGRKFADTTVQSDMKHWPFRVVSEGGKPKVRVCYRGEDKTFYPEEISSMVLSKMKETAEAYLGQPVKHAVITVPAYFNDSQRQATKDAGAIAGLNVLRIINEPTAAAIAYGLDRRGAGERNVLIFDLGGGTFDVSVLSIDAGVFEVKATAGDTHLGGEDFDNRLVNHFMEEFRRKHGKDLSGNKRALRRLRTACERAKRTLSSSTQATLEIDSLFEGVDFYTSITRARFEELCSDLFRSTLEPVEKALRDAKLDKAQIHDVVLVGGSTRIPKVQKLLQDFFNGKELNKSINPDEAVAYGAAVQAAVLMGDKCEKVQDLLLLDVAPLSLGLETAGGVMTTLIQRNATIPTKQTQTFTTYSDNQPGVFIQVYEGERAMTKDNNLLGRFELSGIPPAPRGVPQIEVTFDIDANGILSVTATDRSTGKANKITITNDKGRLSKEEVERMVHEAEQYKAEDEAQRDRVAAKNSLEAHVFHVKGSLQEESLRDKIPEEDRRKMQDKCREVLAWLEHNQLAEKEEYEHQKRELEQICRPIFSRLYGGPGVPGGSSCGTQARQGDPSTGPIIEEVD
UniProt P11142: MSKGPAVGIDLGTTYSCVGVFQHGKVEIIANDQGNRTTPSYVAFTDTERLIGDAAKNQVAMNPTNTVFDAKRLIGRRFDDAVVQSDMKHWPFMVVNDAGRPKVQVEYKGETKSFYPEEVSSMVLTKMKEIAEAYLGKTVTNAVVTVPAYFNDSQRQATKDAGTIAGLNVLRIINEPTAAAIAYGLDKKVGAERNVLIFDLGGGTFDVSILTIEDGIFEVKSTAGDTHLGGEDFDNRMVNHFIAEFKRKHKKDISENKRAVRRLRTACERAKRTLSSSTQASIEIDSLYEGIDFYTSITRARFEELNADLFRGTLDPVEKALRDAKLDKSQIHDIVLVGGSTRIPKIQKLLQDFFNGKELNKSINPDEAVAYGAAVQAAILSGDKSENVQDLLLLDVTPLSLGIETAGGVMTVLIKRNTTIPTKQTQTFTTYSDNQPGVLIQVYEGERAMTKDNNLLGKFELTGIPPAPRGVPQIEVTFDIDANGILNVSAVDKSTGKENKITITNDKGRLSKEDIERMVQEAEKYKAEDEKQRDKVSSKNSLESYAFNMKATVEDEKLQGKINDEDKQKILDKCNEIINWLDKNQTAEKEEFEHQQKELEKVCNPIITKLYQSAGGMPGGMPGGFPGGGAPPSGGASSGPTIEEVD
UniProt P38646, residues 47-679: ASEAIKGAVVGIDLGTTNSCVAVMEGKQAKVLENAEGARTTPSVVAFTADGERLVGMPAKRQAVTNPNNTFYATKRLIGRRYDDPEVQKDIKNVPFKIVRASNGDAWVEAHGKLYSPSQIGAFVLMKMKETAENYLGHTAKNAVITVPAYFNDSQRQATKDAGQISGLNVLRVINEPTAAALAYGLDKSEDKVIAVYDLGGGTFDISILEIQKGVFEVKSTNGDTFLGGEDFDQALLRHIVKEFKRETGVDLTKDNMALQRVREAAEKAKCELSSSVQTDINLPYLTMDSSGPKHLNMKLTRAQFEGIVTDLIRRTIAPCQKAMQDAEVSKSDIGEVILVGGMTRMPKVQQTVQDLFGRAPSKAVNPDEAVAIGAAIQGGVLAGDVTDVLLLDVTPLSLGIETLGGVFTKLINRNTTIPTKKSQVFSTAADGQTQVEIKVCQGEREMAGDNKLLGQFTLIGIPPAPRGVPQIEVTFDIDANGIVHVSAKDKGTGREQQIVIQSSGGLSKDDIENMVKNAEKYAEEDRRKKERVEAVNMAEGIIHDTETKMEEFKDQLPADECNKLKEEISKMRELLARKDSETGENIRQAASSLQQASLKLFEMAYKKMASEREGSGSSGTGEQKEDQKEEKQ
UniProt P61604: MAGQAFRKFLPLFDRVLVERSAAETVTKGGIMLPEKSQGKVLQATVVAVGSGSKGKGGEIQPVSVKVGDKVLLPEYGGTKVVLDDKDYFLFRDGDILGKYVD
UniProt Q9UNE7: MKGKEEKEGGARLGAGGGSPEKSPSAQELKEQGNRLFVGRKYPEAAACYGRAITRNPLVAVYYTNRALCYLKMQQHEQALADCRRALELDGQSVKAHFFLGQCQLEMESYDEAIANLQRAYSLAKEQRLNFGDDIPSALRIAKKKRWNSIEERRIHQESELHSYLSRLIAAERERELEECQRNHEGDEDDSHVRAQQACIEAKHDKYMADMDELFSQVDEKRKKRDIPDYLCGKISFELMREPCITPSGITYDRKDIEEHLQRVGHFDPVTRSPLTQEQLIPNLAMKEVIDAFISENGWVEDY

| binding (^FlagDNAJB8^WT (human) [1]) | binding (^FlagDNAJB8^WT (human) [2]) | binding (^FlagDNAJB8^H31Q (human)) | Substance |
| --- | --- | --- | --- |
| binds | – | – | DNAJB1 (endogenous) (from UniProt P25685 1-340) |
| binds | – | – | DNAJB6 (from UniProt O75190 1-326) |
| binds | – | – | HSPA4 (from UniProt P34932 1-840) |
| binds | binds | binds | HSPA5 (from UniProt P11021 19-654) |
| binds | – | – | HSPA6 (from UniProt P17066 1-643) |
| binds | – | – | HSPA8 (from UniProt P11142 1-646) |
| binds | binds | binds | HSPA9 (from UniProt P38646 47-679) |
| – | binds | binds | HSPE1 (from UniProt P61604 1-102) |
| binds | – | – | STUB1 (from UniProt Q9UNE7 1-303) |

— publication PMC11271386
